The values that follow come from patent publication US20150291697A1.

This test concerns the target human transferrin receptor (TfR) on cells (human) (UniProt P02786). The test can be described thus: flow cytometry on TfR-expressing K562 cells, Alexa488-anti-human IgG. A general note: A flow cytometer gives signals particle by particle.

These are yes or no findings as the source states them, for the method shown. Some results given as binding are weak or reduced against the parent protein; the word gives no strength.

B1: TfR433 antibody (antibody, V domains shown)
VH: QVQLVQSGGGVVQPGRSLRLSCAASGFPFKSYGMHWVRQAPGKGLEWVAVISFDGSSKYYADSVKGRFTISRDNSKNTLYLQMNSLRGEDTAVYYCARDSNFWSGYYSPVDVWGQGTTVTVSS
VL: DIQMTQSPSSLSASVGDRVTITCRASQIASNSVQWYQQKPGTAPKTVIYEDTQLQSGVPSRFSGSGSGTEFTLTINSLQPEDFATYYCQSYNSAYQWVFGQGTKVEIKR
For the molecule B1, the binding entry was “binds”.
